Experiment [1] deals with T1, GPRC5D peptide stretch 5…17 (N-term) (human).
T1 sequence (peptide): CIESTGDYFLLCD
The experiment in a line: Pepscan peptide array ELISA, high stringency, 1 µg/ml. On the technique in general: An ELISA detects its analyte on a solid surface through an enzyme-linked reagent.

Experiment [2] has as its target T2, GPRC5D peptide stretch 15…23 (N-term) (human).
T2 sequence (peptide): LCDAEGPWG
The experiment in a line: Pepscan peptide array ELISA, high stringency, 3 µg/ml.

Experiment [3] addresses T3, GPRC5D peptide stretch 16…25 (N-term) (human).
T3 sequence (peptide): CDAEGPWGII
The experiment in a line: Pepscan peptide array ELISA, moderate stringency, 1 µg/ml.

For experiment [4], the target named is T4, GPRC5D peptide stretch 229…237 (ECL3) (human).
T4 sequence (peptide): PQFQRQPQW
The description is as above.

In experiment [5] the target is T5, GPRC5D peptide stretch 227…237 (ECL3) (human).
T5 sequence (peptide): GNPQFQRQPQW
Nature of the experiment: Pepscan peptide array ELISA, high stringency, 1 µg/ml.

Experiment [6] has as its target T6, GPRC5D peptide stretch 10GDYFLLCD17 (N-term) (human).
T6 sequence (peptide): GDYFLLCD
The experiment is described as above.

Results are given in words; binding and its absence hold for the method and conditions named. Some entries that bind do so weakly or less than the wild type.

B1: ET150-5 mIgG1 (antibody, V domains shown)
VH: EVQLVESGGGLVKPGGSLRLSCAASGFTFSDYYMSWIRQAPGKGLEWVSYISSSGSTIYYADSVKGRFTISRDNAKNSLYLQMNSLRAEDTAVYYCARGYGKAYDQWGQGTLVTVSS
VL: QSVLTQPPSASGTPGQRVTISCSGSRSNVGGNYVFWYQQVPGATPKLLIYRSNQRPSGVPDRFAGSKSGSSASLAISGLRSEDEADYYCATWDDSLSGFVFGTGTKVTVLG
notes: also called ET150-155
As to B1, in experiment [1], the binding entry was “binds”.

B2: ET150-8 mIgG1 (antibody, V domains shown)
VH: QVQLVESGGGLVHPGGSLRLSCAASGFTFRSHSMNWVRQAPGKGLEWVSSISSDSTYTYYADSVKGRFTISRDNAKNSLYLQMNSLRAEDTAVYYCARSGGQWKYYDYWGQGTLVTVSS
VL: SSELTQDPAVSVALGQTVRITCQGDSLRSYYASWYQQKPGQAPVLVIYGKNNRPSGIPDRFSGSSSGNTASLTITGAQAEDEADYYCNSRDSSGNPPVVFGGGTKLTVLG
notes: also called ET150-158
B2: the binding entry in experiment [2] was “binds”.

B3: ET150-2 mIgG1 (antibody, V domains shown)
VH: QMQLVQSGAEVKKPGASVKVSCKASGYTFNRYAITWVRQAPGQGLEWMGWISAYNGNSHYAQKLQGRVTMTTDTSTGTAYMELRRLRSDDTAVYYCARMAYDSWGQGTLVTVSS
VL: QSVLTQPASVSGSPGQSLTISCTGTSNDVGAYKYVSWYQQYPGKAPKLILYDVFKRPSGVSNRFSGSKSDNTASLTISGLQAEDEADYYCFSLTSSNTYVFGTGTKVTVLG
notes: also called ET150-152
For the molecule B3, the binding entry in experiment [3] and in experiment [4] was “binds” in each case.

B4: ET150-18 mIgG1 (antibody, V domains shown)
VH: EVQLVESGGGLIQPGGSLRLSCAASGFTFSNYAMNWVRQAPGKGLEWVSTINGRGSSTIYADSVKGRFTISRDNSKNTLYLQMNSLRAEDTATYYCARYISRGLGDSWGQGTLVTV
VL: QSVVTQPPSMSAAPGQQVTISCSGGNSNIERNYVSWYLQLPGTAPKLVIFDNDRRPSGIPDRFSGSKSGTSATLGITGLQTGDEADYYCGTWDSSLRGWVFGGGTKLTVLG
notes: also called ET150-168
Regarding B4, the binding entry in experiment [5] and in experiment [6] was “binds” throughout.

Source of the values: patent US20240076370A1 (Memorial Sloan Kettering, published 2024).
